Reference: PubChem BioAssay AID1224826 (NIAID, 2016)
This is an unselected part of about 17,000 deposited reagents. About 1,110 of all reagents (6.6%) count as active. 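Active means lowered or raised reporter signal; replicate intensities are raw and not normalised per plate.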 Entries without a mark were called inactive. Some reagents were tested in more than one well and are listed for each. Not all columns of the deposit are shown. Reagent sequences are not shown.

Aim: 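Genes that change LPS-induced Tnf promoter activity in mouse macrophages when knocked down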 (primary screen)
System: RAW264.7 G9 macrophages from mouse bearing reporters for p65 (GFP) and the Tnf promoter (mCherry)
Reagent: siRNA pool against mouse genes, 100 nM
Timing: 16 h of LPS stimulation, after 2 days of siRNA transfection
Conditions: bacterial lipopolysaccharide (Salmonella minnesota R595), 10 ng/ml
Measured: 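Imaged Tnf reporter mCherry in nuclei, minus background, normalised per plate to the median and expressed as robust z-scores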
Direction: Tnf reporter robust z-score: higher = stronger Tnf promoter reporter signal after LPS
Hit rule: 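a well counts as active at a score of -1.3 or below (Tlr4 knock-down control median) or above 3 (raised signal); controls and wells holding fewer than 50 cells are excluded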
Meaning of the calls: active = Tnf reporter clearly lowered or raised; inactive = no clear change in Tnf reporter

| Target gene | Tnf reporter robust z-score | fewer than 50 cells in well |
| --- | --- | --- |
| Mllt3 | 3.59 (active) | enough cells in well |
| Or7a40 (olfactory receptor family 7 subfamily A member 40) | -0.04 | enough cells in well |
| 9430097D07Rik (RIKEN cDNA 9430097D07 gene) | 0.84 | enough cells in well |
| Sntg2 (syntrophin, gamma 2) | 0.01 | enough cells in well |
| Gan (giant axonal neuropathy) | -0.18 | enough cells in well |
| Klk9 (kallikrein related-peptidase 9) | – | fewer than 50 cells per well; well left out of calls |
| Pygm (muscle glycogen phosphorylase) | -0.64 | enough cells in well |
| Slc23a3 | -0.44 | enough cells in well |
| Polr1b (polymerase (RNA) I polypeptide B) | 0.47 | enough cells in well |
| Snrnp25 (small nuclear ribonucleoprotein 25 (U11/U12)) | -0.39 | enough cells in well |
| Gpr132 (G protein-coupled receptor 132) | -0.88 | enough cells in well |
| Ccnb1 (cyclin B1) | 1.75 | enough cells in well |
| Dnajc14 (DnaJ heat shock protein family (Hsp40) member C14) | -0.99 | enough cells in well |
| Hacd3 (3-hydroxyacyl-CoA dehydratase 3) | -0.21 | enough cells in well |
| Pard6b (par-6 family cell polarity regulator beta) | -0.1 | enough cells in well |
| Aldh2 (aldehyde dehydrogenase 2, mitochondrial) | -0.76 | enough cells in well |
| Ppm1k (protein phosphatase 1K (PP2C domain containing)) | -0.61 | enough cells in well |
| Snx33 (sorting nexin 33) | 0.87 | enough cells in well |
| Lce1g (late cornified envelope 1G) | -0.7 | enough cells in well |
| Ppp2cb | 0.42 | enough cells in well |
| Or8j3c (olfactory receptor family 8 subfamily J member 3C) | 1.89 | enough cells in well |
| Atp5po (ATP synthase peripheral stalk subunit OSCP) | -0.7 | enough cells in well |
| Pelo (pelota mRNA surveillance and ribosome rescue factor) | -1.21 | enough cells in well |
| Aurka (aurora kinase A) | – | fewer than 50 cells per well; well left out of calls |
| Eral1 (Era like 12S mitochondrial rRNA chaperone 1) | -0.06 | enough cells in well |
| Galnt2 (polypeptide N-acetylgalactosaminyltransferase 2) | 0 | enough cells in well |
| Jsrp1 (junctional sarcoplasmic reticulum protein 1) | – | fewer than 50 cells per well; well left out of calls |
| Or5b95 (olfactory receptor family 5 subfamily B member 95) | 1.08 | enough cells in well |
| Plxna4os2 (plexin A4, opposite strand 2) | -0.39 | enough cells in well |
| Mro (maestro) | 2.31 | enough cells in well |
| Srsf10 (serine and arginine-rich splicing factor 10) | 0.26 | enough cells in well |
| Mri1 (methylthioribose-1-phosphate isomerase 1) | -0.12 | enough cells in well |
| Dgkk (diacylglycerol kinase kappa) | 0 | enough cells in well |
| Apoa1 (apolipoprotein A-I) | 1.67 | enough cells in well |
| H2-Aa (histocompatibility 2, class II antigen A, alpha) | -0.25 | enough cells in well |
| Zfp35 (zinc finger protein 35) | -0.87 | enough cells in well |
| Or1a1 (olfactory receptor family 1 subfamily A member 1) | 0.91 | enough cells in well |
| Or1a1 (olfactory receptor family 1 subfamily A member 1) | 2.01 | enough cells in well |
| Zfp277 (zinc finger protein 277) | 0.07 | enough cells in well |
| Onecut1 (one cut domain, family member 1) | -0.6 | enough cells in well |
| Diablo (diablo, IAP-binding mitochondrial protein) | 1.18 | enough cells in well |
| Rp9 (retinitis pigmentosa 9 (human)) | 2.05 | enough cells in well |
| Foxa1 (forkhead box A1) | 0.43 | enough cells in well |
| Rdx (radixin) | -0.19 | enough cells in well |
| Hecw1 | 0.04 | enough cells in well |
| E330037G11Rik (RIKEN cDNA E330037G11 gene) | 0.5 | enough cells in well |
| Maea (macrophage erythroblast attacher) | -0.59 | enough cells in well |
| 5930403N24Rik (RIKEN cDNA 5930403N24 gene) | 2.91 | enough cells in well |
| Or10ag53 (olfactory receptor family 10 subfamily AG member 53) | -0.37 | enough cells in well |
| Rhoj (ras homolog family member J) | -1.54 (active) | enough cells in well |
| Trim35 (tripartite motif-containing 35) | -1.31 (active) | enough cells in well |
| Flna (filamin, alpha) | -0.84 | enough cells in well |
| Gmpr (guanosine monophosphate reductase) | 1.19 | enough cells in well |
| Dnai7 (dynein axonemal intermediate chain 7) | 0.74 | enough cells in well |
| Dhcr7 (7-dehydrocholesterol reductase) | 0.91 | enough cells in well |
| Or8k17 (olfactory receptor family 8 subfamily K member 17) | -0.25 | enough cells in well |
| Slc13a3 | 2.06 | enough cells in well |
| Slc60a1 | -0.17 | enough cells in well |

Called active (from the list above):
| Target gene | Tnf reporter robust z-score | fewer than 50 cells in well |
| --- | --- | --- |
| Mllt3 | 3.59 (active) | enough cells in well |
| Rhoj (ras homolog family member J) | -1.54 (active) | enough cells in well |
| Trim35 (tripartite motif-containing 35) | -1.31 (active) | enough cells in well |
